{"source": "PubChem BioAssay AID1259308 (NCATS, 2017)", "purpose": "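Candidate targets for better recombinant protein yield in mammalian cells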 (primary screen)", "system": "human HEK293 embryonic kidney cells stably expressing firefly luciferase (HEK-CMV-Luc2-Hygro)", "reagents": "single siRNA against human genes, 0.8 pmol siRNA per well", "duration": "72 h", "measurement": "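Luciferase light (ONE-Glo) measured on one replicate plate set and viability (CellTiter-Glo) on the other, scaled to a negative control siRNA, with robust z-scores and luciferase per cell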", "scale": "total luciferase, z-score and total luciferase, % of control: higher = more reporter protein produced", "active means": "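Active when the median/MAD z-score for overall luciferase is greater than 3; a gene was taken forward for validation with new siRNAs if at least two of its three siRNAs passed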", "calls": "active = raised luciferase; inactive = no rise", "note": "Here is a random part of about 59,000 reagents tested. About 1,510 of all reagents (2.6%) were called active. 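Calls use total luciferase alone and ignore viability, so some active siRNAs may act by altering cell number.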 The numbers tell different reagents against one gene apart. Not all columns of the deposit are shown."}
{"gene": "RXFP1 (GeneID 59350)", "reagent": 1, "total luciferase, z-score": -0.165, "total luciferase, % of control": 78.6, "call": "inactive"}
{"gene": "RXFP1 (GeneID 59350)", "reagent": 2, "total luciferase, z-score": 0.756, "total luciferase, % of control": 96.9, "call": "inactive"}
{"gene": "RXFP1 (GeneID 59350)", "reagent": 3, "total luciferase, z-score": 0.24, "total luciferase, % of control": 86.7, "call": "inactive"}
{"gene": "COL4A5 (GeneID 1287)", "reagent": 1, "total luciferase, z-score": -0.804, "total luciferase, % of control": 65.9, "call": "inactive"}
{"gene": "COL4A5 (GeneID 1287)", "reagent": 2, "total luciferase, z-score": -0.618, "total luciferase, % of control": 69.6, "call": "inactive"}
{"gene": "COL4A5 (GeneID 1287)", "reagent": 3, "total luciferase, z-score": 0.74, "total luciferase, % of control": 96.6, "call": "inactive"}
{"gene": "SPAG4 (GeneID 6676)", "reagent": 1, "total luciferase, z-score": -0.313, "total luciferase, % of control": 75.7, "call": "inactive"}
{"gene": "SPAG4 (GeneID 6676)", "reagent": 2, "total luciferase, z-score": -0.368, "total luciferase, % of control": 74.6, "call": "inactive"}
{"gene": "SPAG4 (GeneID 6676)", "reagent": 3, "total luciferase, z-score": 1.2, "total luciferase, % of control": 106, "call": "inactive"}
{"gene": "GRIN2C (GeneID 2905)", "reagent": 1, "total luciferase, z-score": -0.265, "total luciferase, % of control": 76.6, "call": "inactive"}
{"gene": "GRIN2C (GeneID 2905)", "reagent": 2, "total luciferase, z-score": -1, "total luciferase, % of control": 61.9, "call": "inactive"}
{"gene": "GRIN2C (GeneID 2905)", "reagent": 3, "total luciferase, z-score": 0.0391, "total luciferase, % of control": 82.7, "call": "inactive"}
{"gene": "BDH2 (GeneID 56898)", "reagent": 1, "total luciferase, z-score": 1.27, "total luciferase, % of control": 107, "call": "inactive"}
{"gene": "BDH2 (GeneID 56898)", "reagent": 2, "total luciferase, z-score": -0.181, "total luciferase, % of control": 78.3, "call": "inactive"}
{"gene": "BDH2 (GeneID 56898)", "reagent": 3, "total luciferase, z-score": 1.23, "total luciferase, % of control": 106, "call": "inactive"}
{"gene": "NR2E3 (GeneID 10002)", "reagent": 1, "total luciferase, z-score": -0.498, "total luciferase, % of control": 72, "call": "inactive"}
{"gene": "NR2E3 (GeneID 10002)", "reagent": 2, "total luciferase, z-score": 1.06, "total luciferase, % of control": 103, "call": "inactive"}
{"gene": "NR2E3 (GeneID 10002)", "reagent": 3, "total luciferase, z-score": 1.13, "total luciferase, % of control": 104, "call": "inactive"}
{"gene": "MTNR1B (GeneID 4544)", "reagent": 1, "total luciferase, z-score": -0.33, "total luciferase, % of control": 75.3, "call": "inactive"}
{"gene": "MTNR1B (GeneID 4544)", "reagent": 2, "total luciferase, z-score": 0.199, "total luciferase, % of control": 85.9, "call": "inactive"}
{"gene": "MTNR1B (GeneID 4544)", "reagent": 3, "total luciferase, z-score": -0.18, "total luciferase, % of control": 78.3, "call": "inactive"}
{"gene": "NUDT14 (GeneID 256281)", "reagent": 1, "total luciferase, z-score": -0.278, "total luciferase, % of control": 76.4, "call": "inactive"}
{"gene": "NUDT14 (GeneID 256281)", "reagent": 2, "total luciferase, z-score": -2.09, "total luciferase, % of control": 40.4, "call": "inactive"}
{"gene": "NUDT14 (GeneID 256281)", "reagent": 3, "total luciferase, z-score": 1.62, "total luciferase, % of control": 114, "call": "inactive"}
{"gene": "DPF2 (GeneID 5977)", "reagent": 1, "total luciferase, z-score": 1.07, "total luciferase, % of control": 103, "call": "inactive"}
{"gene": "DPF2 (GeneID 5977)", "reagent": 2, "total luciferase, z-score": 2.5, "total luciferase, % of control": 132, "call": "inactive"}
{"gene": "DPF2 (GeneID 5977)", "reagent": 3, "total luciferase, z-score": -0.472, "total luciferase, % of control": 72.5, "call": "inactive"}
{"gene": "CHTF8 (GeneID 54921)", "reagent": 1, "total luciferase, z-score": 0.176, "total luciferase, % of control": 85.4, "call": "inactive"}
{"gene": "CHTF8 (GeneID 54921)", "reagent": 2, "total luciferase, z-score": 1.43, "total luciferase, % of control": 110, "call": "inactive"}
{"gene": "CHTF8 (GeneID 54921)", "reagent": 3, "total luciferase, z-score": 0.0457, "total luciferase, % of control": 82.8, "call": "inactive"}
{"gene": "CCDC43 (GeneID 124808)", "reagent": 1, "total luciferase, z-score": -0.448, "total luciferase, % of control": 73, "call": "inactive"}
{"gene": "CCDC43 (GeneID 124808)", "reagent": 2, "total luciferase, z-score": 2.48, "total luciferase, % of control": 131, "call": "inactive"}
{"gene": "CCDC43 (GeneID 124808)", "reagent": 3, "total luciferase, z-score": 1.02, "total luciferase, % of control": 102, "call": "inactive"}
{"gene": "PRDM6 (GeneID 93166)", "reagent": 1, "total luciferase, z-score": 1.03, "total luciferase, % of control": 102, "call": "inactive"}
{"gene": "PRDM6 (GeneID 93166)", "reagent": 2, "total luciferase, z-score": 0.0575, "total luciferase, % of control": 83, "call": "inactive"}
{"gene": "PRDM6 (GeneID 93166)", "reagent": 3, "total luciferase, z-score": 0.264, "total luciferase, % of control": 87.1, "call": "inactive"}
{"gene": "LIPM (GeneID 340654)", "reagent": 1, "total luciferase, z-score": 0.325, "total luciferase, % of control": 88.4, "call": "inactive"}
{"gene": "LIPM (GeneID 340654)", "reagent": 2, "total luciferase, z-score": 0.228, "total luciferase, % of control": 86.4, "call": "inactive"}
{"gene": "LIPM (GeneID 340654)", "reagent": 3, "total luciferase, z-score": 1.49, "total luciferase, % of control": 112, "call": "inactive"}
{"gene": "KIAA1614 (GeneID 57710)", "reagent": 1, "total luciferase, z-score": 1.95, "total luciferase, % of control": 121, "call": "inactive"}
{"gene": "KIAA1614 (GeneID 57710)", "reagent": 2, "total luciferase, z-score": -0.249, "total luciferase, % of control": 76.9, "call": "inactive"}
{"gene": "KIAA1614 (GeneID 57710)", "reagent": 3, "total luciferase, z-score": 0.56, "total luciferase, % of control": 93, "call": "inactive"}

Part of the list above in another layout.
gene	reagent	total luciferase, z-score	total luciferase, % of control	call
GRIN2C (GeneID 2905)	3	0.0391	82.7	inactive
BDH2 (GeneID 56898)	1	1.27	107	inactive
BDH2 (GeneID 56898)	2	-0.181	78.3	inactive
BDH2 (GeneID 56898)	3	1.23	106	inactive
NR2E3 (GeneID 10002)	1	-0.498	72	inactive
NR2E3 (GeneID 10002)	2	1.06	103	inactive
NR2E3 (GeneID 10002)	3	1.13	104	inactive
